{"source": "PubChem BioAssay AID504764 (Drosophila RNAi Screening Center, 2011)", "aim": "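Genome-wide screen for regulators of Notch-driven gene expression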 (primary screen)", "system": "Drosophila Kc167 cells", "reagent": "long dsRNA against Drosophila genes", "timing": "about 5 days (4 days dsRNA, then 24 h after transfection)", "treatment": "transfection of constitutively active membrane-tethered Notch lacking the extracellular domain, read 24 h later", "measured": "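Light from a Notch-responsive E(spl)m3 luciferase reporter under active Notch, with control-promoter and no-Notch reporter wells to normalise; raw counts from paired wells a and b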", "reading the numbers": "induced reporter light, run 1, well a and induced reporter light, run 1, well b: higher = more light from the Notch target reporter with active Notch; control promoter light, run 1, well a and control promoter light, run 1, well b: higher = more light from the viral control promoter (cell number, transfection, viability); uninduced reporter light, run 1, well a: higher = more light from the Notch target reporter without active Notch", "call rule": "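Wells with low control signal or poorly matching duplicates excluded; duplicates averaged; per source plate, z beyond ±2 for induced/control log2 ratio or beyond ±1.8 for induced/uninduced marks a hit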", "meaning of the calls": "active = modifier hit (raised or lowered Notch signal); inactive = not a hit", "note": "The screen tested about 22,000 reagents; below is a random part of those with a known target gene and a result. In the full data, 403 (1.9%) are marked active. 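Unnormalised raw counts per well; ratio z-scores behind the hit calls and whether each hit raises or lowers signal are not deposited.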 Unmarked entries are inactive. Not stated in the record: the amount of reagent."}
{"Target gene": "CG33337", "dsRNA": "DRSC13632", "induced reporter light, run 1, well a": 2.05e5, "induced reporter light, run 1, well b": 2.15e5, "control promoter light, run 1, well a": 2.15e5, "control promoter light, run 1, well b": 2.17e5, "uninduced reporter light, run 1, well a": 17060}
{"Target gene": "mRpL24", "dsRNA": "DRSC03113", "induced reporter light, run 1, well a": "1.99e5 (active)", "induced reporter light, run 1, well b": 1.90e5, "control promoter light, run 1, well a": 2.44e5, "control promoter light, run 1, well b": 2.78e5, "uninduced reporter light, run 1, well a": 14760}
{"Target gene": "CG13016", "dsRNA": "DRSC06271", "induced reporter light, run 1, well a": 1.10e5, "induced reporter light, run 1, well b": 1.20e5, "control promoter light, run 1, well a": 1.61e5, "control promoter light, run 1, well b": 1.43e5, "uninduced reporter light, run 1, well a": 9650}
{"Target gene": "ADD1", "dsRNA": "DRSC07135", "induced reporter light, run 1, well a": 1.05e5, "induced reporter light, run 1, well b": 96520, "control promoter light, run 1, well a": 1.23e5, "control promoter light, run 1, well b": 1.21e5, "uninduced reporter light, run 1, well a": 9065}
{"Target gene": "CG3760", "dsRNA": "DRSC04415", "induced reporter light, run 1, well a": 1.92e5, "induced reporter light, run 1, well b": 1.30e5, "control promoter light, run 1, well a": 2.09e5, "control promoter light, run 1, well b": 2.05e5, "uninduced reporter light, run 1, well a": 12110}
{"Target gene": "Cfp1", "dsRNA": "DRSC18128", "induced reporter light, run 1, well a": 1.17e5, "induced reporter light, run 1, well b": 1.21e5, "control promoter light, run 1, well a": 2.05e5, "control promoter light, run 1, well b": 1.75e5, "uninduced reporter light, run 1, well a": 8610}
{"Target gene": "Acp32CD", "dsRNA": "DRSC01858", "induced reporter light, run 1, well a": 1.47e5, "induced reporter light, run 1, well b": 1.54e5, "control promoter light, run 1, well a": 62100, "control promoter light, run 1, well b": 1.03e5, "uninduced reporter light, run 1, well a": 20592}
{"Target gene": "kumpel", "dsRNA": "DRSC14883", "induced reporter light, run 1, well a": 1.34e5, "induced reporter light, run 1, well b": 1.15e5, "control promoter light, run 1, well a": 1.92e5, "control promoter light, run 1, well b": 2.00e5, "uninduced reporter light, run 1, well a": 11035}
{"Target gene": "kumpel", "dsRNA": "DRSC16459", "induced reporter light, run 1, well a": 1.72e5, "induced reporter light, run 1, well b": 1.67e5, "control promoter light, run 1, well a": 1.69e5, "control promoter light, run 1, well b": 1.85e5, "uninduced reporter light, run 1, well a": 13900}
{"Target gene": "kumpel", "dsRNA": "DRSC16460", "induced reporter light, run 1, well a": 1.54e5, "induced reporter light, run 1, well b": 1.78e5, "control promoter light, run 1, well a": 2.15e5, "control promoter light, run 1, well b": 1.99e5, "uninduced reporter light, run 1, well a": 13100}
{"Target gene": "kumpel", "dsRNA": "DRSC16461", "induced reporter light, run 1, well a": 1.62e5, "induced reporter light, run 1, well b": 1.69e5, "control promoter light, run 1, well a": 1.69e5, "control promoter light, run 1, well b": 1.73e5, "uninduced reporter light, run 1, well a": 13365}
{"Target gene": "kumpel", "dsRNA": "DRSC16462", "induced reporter light, run 1, well a": 1.81e5, "induced reporter light, run 1, well b": 1.45e5, "control promoter light, run 1, well a": 2.03e5, "control promoter light, run 1, well b": 1.81e5, "uninduced reporter light, run 1, well a": 14895}
{"Target gene": "kumpel", "dsRNA": "DRSC16463", "induced reporter light, run 1, well a": 1.46e5, "induced reporter light, run 1, well b": 1.51e5, "control promoter light, run 1, well a": 2.18e5, "control promoter light, run 1, well b": 2.02e5, "uninduced reporter light, run 1, well a": 12190}

Targets above whose gene name starts with K or k:
{"Target gene": "kumpel", "dsRNA": "DRSC14883", "induced reporter light, run 1, well a": 1.34e5, "induced reporter light, run 1, well b": 1.15e5, "control promoter light, run 1, well a": 1.92e5, "control promoter light, run 1, well b": 2.00e5, "uninduced reporter light, run 1, well a": 11035}
{"Target gene": "kumpel", "dsRNA": "DRSC16459", "induced reporter light, run 1, well a": 1.72e5, "induced reporter light, run 1, well b": 1.67e5, "control promoter light, run 1, well a": 1.69e5, "control promoter light, run 1, well b": 1.85e5, "uninduced reporter light, run 1, well a": 13900}
{"Target gene": "kumpel", "dsRNA": "DRSC16460", "induced reporter light, run 1, well a": 1.54e5, "induced reporter light, run 1, well b": 1.78e5, "control promoter light, run 1, well a": 2.15e5, "control promoter light, run 1, well b": 1.99e5, "uninduced reporter light, run 1, well a": 13100}
{"Target gene": "kumpel", "dsRNA": "DRSC16461", "induced reporter light, run 1, well a": 1.62e5, "induced reporter light, run 1, well b": 1.69e5, "control promoter light, run 1, well a": 1.69e5, "control promoter light, run 1, well b": 1.73e5, "uninduced reporter light, run 1, well a": 13365}
{"Target gene": "kumpel", "dsRNA": "DRSC16462", "induced reporter light, run 1, well a": 1.81e5, "induced reporter light, run 1, well b": 1.45e5, "control promoter light, run 1, well a": 2.03e5, "control promoter light, run 1, well b": 1.81e5, "uninduced reporter light, run 1, well a": 14895}
{"Target gene": "kumpel", "dsRNA": "DRSC16463", "induced reporter light, run 1, well a": 1.46e5, "induced reporter light, run 1, well b": 1.51e5, "control promoter light, run 1, well a": 2.18e5, "control promoter light, run 1, well b": 2.02e5, "uninduced reporter light, run 1, well a": 12190}
